Read-outs that look alike come from different tables or passages of the source.
O=NO [NO2^−, nitrite]
NO level generated (15 mM NO2^− in CF ASL, pH 6.43): 562 nM
NO level generated (15 mM NO2^− in LB at pH 6.5): 489 nM

Source: patent US8557300B2 (priority 2005, dated 2013)
